Source: the supplement of paper PMC6078165
Values are relative to the signal before dosing, not to a vehicle control; the signal also falls without drug.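 Labels refer to human fibroblasts, largely primary: uterine (C12385, HUF), lung (H6013), bone (Hs27A), adrenal (HADF), skin (WS1), plus mammary HMF and breast cancer-associated Hs343T. Cancer lines are basal-like or mesenchymal-like triple-negative breast cancer. The paper counts as hits responses shifting over 3x the replicate standard deviation. The tissue of the other fibroblasts is not given here.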

Test system: MDAMB468
Assay: relative JC-1 red fluorescence (viability) vs pre-drug, coculture with fibroblast (fraction); higher = more viable cancer cells
Procedure: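 JC-1 labelled TNBC cells cocultured 1:1 (1,500 cells each) with CellTrace Violet stained primary or stromal fibroblasts in 384-well plates in FluoroBrite medium, treated with one of 42 anticancer drugs at 0.1, 1, 10 or 100 uM. JC-1 red fluorescence (mitochondrial integrity in cancer cells only) was read by plate reader every 8 h for 72 h. Values are normalised to each well's pre-drug value. The stock of one drug was tenfold lower, so its dose labels may be too high.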

N.N.[Cl][Pt][Cl] [Cisplatin]
relative JC-1 red fluorescence
Details	8 h	16 h	24 h	32 h	40 h	48 h	56 h	64 h	72 h
0.1 µM, coculture fibroblast: C12385	0.8646	0.817	0.795	0.747	0.7141	0.717	0.682	0.676	0.672
0.1 µM, coculture fibroblast: H6013	0.892	0.881	0.854	0.861	0.841	0.848	0.833	0.821	0.773
0.1 µM, coculture fibroblast: H6019	0.875	0.867	0.853	0.818	0.781	0.769	0.713	0.677	0.652
0.1 µM, coculture fibroblast: H6076	0.8874	0.908	0.851	0.849	0.788	0.779	0.735	0.728	0.762
0.1 µM, coculture fibroblast: H6231	0.826	0.9311	0.8627	0.826	0.78	0.75	0.7	0.667	0.65
0.1 µM, coculture fibroblast: HADF	0.8573	0.83	0.771	0.761	0.722	0.718	0.7	0.688	0.652
0.1 µM, coculture fibroblast: HCFa	0.8528	0.82145	0.7683	0.737	0.672	0.66	0.611	0.576	0.529
0.1 µM, coculture fibroblast: HCPF	0.851	0.931	0.854	0.844	0.78	0.753	0.7031	0.697	0.694
0.1 µM, coculture fibroblast: HHSteC	0.8898	0.859	0.816	0.788	0.754	0.752	0.706	0.684	0.633
0.1 µM, coculture fibroblast: HMF	0.81911	0.9298	0.84	0.806	0.7451	0.722	0.683	0.667	0.6462
0.1 µM, coculture fibroblast: HPFa	0.914	0.878	0.841	0.782	0.75	0.753	0.694	0.667	0.592
0.1 µM, coculture fibroblast: HUF	0.927	0.876	0.868	0.827	0.776	0.767	0.731	0.727	0.713
0.1 µM, coculture fibroblast: Hs5	0.892	0.95	0.905	0.8738	0.815	0.781	0.748	0.724	0.744
0.1 µM, coculture fibroblast: Hs27A	0.8505	0.83	0.76815	0.7603	0.699	0.69652	0.662	0.645	0.617
0.1 µM, coculture fibroblast: Hs343T	0.865	0.911	0.847	0.827	0.775	0.76	0.711	0.702	0.681
0.1 µM, coculture fibroblast: WS1	0.8405	0.791	0.75	0.692	0.653	0.624	0.601	0.594	0.591
1 µM, coculture fibroblast: C12385	0.853	0.799	0.761	0.713	0.677	0.677	0.645	0.628	0.619
1 µM, coculture fibroblast: H6013	0.867	0.866	0.83	0.816	0.795	0.8017	0.7715	0.767	0.701
1 µM, coculture fibroblast: H6019	0.833	0.8005	0.767	0.712	0.661	0.649	0.6	0.579	0.546
1 µM, coculture fibroblast: H6076	0.9228	0.925	0.8748	0.854	0.795	0.776	0.747	0.726	0.763
1 µM, coculture fibroblast: H6231	0.865	0.921	0.898	0.903	0.844	0.824	0.775	0.751	0.74
1 µM, coculture fibroblast: HADF	0.8622	0.846	0.8005	0.7848	0.764	0.748	0.7	0.684	0.6251
1 µM, coculture fibroblast: HCFa	0.852	0.841	0.784	0.74	0.687	0.684	0.637	0.606	0.552
1 µM, coculture fibroblast: HCPF	0.849	0.878	0.814	0.817	0.751	0.722	0.699	0.687	0.688
1 µM, coculture fibroblast: HHSteC	0.8897	0.866	0.84	0.798	0.778	0.784	0.718	0.703	0.647
1 µM, coculture fibroblast: HMF	0.829	0.869	0.825	0.8	0.729	0.716	0.68	0.658	0.644
1 µM, coculture fibroblast: HPFa	0.899	0.904	0.872	0.8134	0.7894	0.787	0.727	0.707	0.636
1 µM, coculture fibroblast: HUF	0.8964	0.826	0.771	0.712	0.666	0.65	0.599	0.575	0.554
1 µM, coculture fibroblast: Hs5	0.96056	0.907	0.888	0.868	0.797	0.785	0.766	0.743	0.763
1 µM, coculture fibroblast: Hs27A	0.8467	0.827	0.752	0.742	0.6955	0.6945	0.677	0.671	0.621
1 µM, coculture fibroblast: Hs343T	0.868	0.907	0.874	0.8536	0.78442	0.756	0.7	0.67	0.666
1 µM, coculture fibroblast: WS1	0.858	0.798	0.7379	0.6689	0.6215	0.592	0.549	0.521	0.504
10 µM, coculture fibroblast: C12385	0.815	0.683	0.627	0.583	0.539	0.539	0.506	0.496	0.489
10 µM, coculture fibroblast: H6013	0.837	0.702	0.634	0.599	0.583	0.593	0.571	0.564	0.507
10 µM, coculture fibroblast: H6019	0.8419	0.769	0.758	0.719	0.693	0.706	0.675	0.665	0.663
10 µM, coculture fibroblast: H6076	0.942	0.881	0.799	0.7914	0.705	0.7	0.663	0.644	0.705
10 µM, coculture fibroblast: H6231	0.833	0.8567	0.662	0.613	0.503	0.466	0.428	0.408	0.417
10 µM, coculture fibroblast: HADF	0.834	0.69	0.605	0.552	0.527	0.519	0.486	0.478	0.415
10 µM, coculture fibroblast: HCFa	0.833	0.7336	0.6462	0.5855	0.546	0.547	0.499	0.479	0.418
10 µM, coculture fibroblast: HCPF	0.843	0.8338	0.685	0.657	0.562	0.5216	0.463	0.451	0.452
10 µM, coculture fibroblast: HHSteC	0.848	0.719	0.649	0.585	0.572	0.5841	0.53281	0.5203	0.457
10 µM, coculture fibroblast: HMF	0.817	0.806	0.647	0.598	0.508	0.486	0.441	0.431	0.426
10 µM, coculture fibroblast: HPFa	0.873	0.735	0.661	0.581	0.565	0.574	0.531	0.52	0.458
10 µM, coculture fibroblast: HUF	0.8424	0.69	0.616	0.5496	0.5155	0.51	0.4738	0.472	0.461
10 µM, coculture fibroblast: Hs5	0.853	0.83	0.71	0.658	0.572	0.545	0.529	0.509	0.548
10 µM, coculture fibroblast: Hs27A	0.819	0.723	0.654	0.636	0.625	0.636	0.602	0.59	0.517
10 µM, coculture fibroblast: Hs343T	0.857	0.833	0.6683	0.602	0.497	0.456	0.4168	0.406	0.399
10 µM, coculture fibroblast: WS1	0.796	0.662	0.583	0.511	0.463	0.443	0.415	0.408	0.402
100 µM, coculture fibroblast: C12385	0.712	0.6122	0.557	0.509	0.481	0.4778	0.453	0.439	0.434
100 µM, coculture fibroblast: H6013	0.709	0.584	0.501	0.451	0.449	0.441	0.418	0.406	0.353
100 µM, coculture fibroblast: H6019	0.781	0.671	0.586	0.512	0.453	0.434	0.387	0.362	0.341
100 µM, coculture fibroblast: H6076	0.827	0.618	0.516	0.505	0.432	0.422	0.398	0.378	0.405
100 µM, coculture fibroblast: H6231	0.864	0.691	0.598	0.618	0.517	0.506	0.47	0.462	0.475
100 µM, coculture fibroblast: HADF	0.7811	0.675	0.564	0.48111	0.459	0.452	0.423	0.412	0.349
100 µM, coculture fibroblast: HCFa	0.81208	0.802	0.666	0.57	0.528	0.514	0.475	0.451	0.393
100 µM, coculture fibroblast: HCPF	0.833	0.69	0.594	0.602	0.503	0.478	0.457	0.447	0.46
100 µM, coculture fibroblast: HHSteC	0.783	0.679	0.615	0.551	0.552	0.554	0.503	0.493	0.439
100 µM, coculture fibroblast: HMF	0.769	0.624	0.518	0.486	0.404	0.388	0.365	0.356	0.3548
100 µM, coculture fibroblast: HPFa	0.8117	0.696	0.632	0.551	0.558	0.556	0.514	0.505	0.443
100 µM, coculture fibroblast: HUF	0.809	0.673	0.599	0.522	0.468	0.46	0.425	0.406	0.39
100 µM, coculture fibroblast: Hs5	0.874	0.6587	0.582	0.548	0.47	0.451	0.433	0.418	0.444
100 µM, coculture fibroblast: Hs27A	0.7244	0.6742	0.5605	0.512	0.505	0.503	0.482	0.475	0.412
100 µM, coculture fibroblast: Hs343T	0.816	0.632	0.517	0.481	0.394	0.381	0.366	0.36	0.365
100 µM, coculture fibroblast: WS1	0.778	0.637	0.431	0.337	0.301	0.291	0.27	0.261	0.254
